Experimental findings from PMC10163288 are described below.

Some of the results follow.

To fix the notation:
B1: il2ra_site2_2erj_sap_19_mot_HHH_b2_05866_000000027_0001_43_57_H_._HHH_b2_00454_0001_0000300014_0000001_0_0001 (protein)
chain: SSDDRQKVLRELSRKFLEAARRNDEEALEEVVRLAEELAEEFDDPQLRAIAETLRRMLEWVRSSS
B2: il2ra_site1_1z92_sap_11_mot_96c1ddac3a320f3fb7c3d0e7ac756063_0001_000000061_0001_1_12_H_._ad75df98f761ac54d5817c2236956e28_0001_1_af2_0001_0000100003_0000001_0_ … (protein)
chain: TEYLKEQLERKVERGNPEAAVKLLVKMAESLAGGNPEEAEKAVRRLVEELGLPPEVREKVEELLK
B3: il2ra_site1_2b5i_normal_mot_fe74bfd50694bb190af954a823403fd2_0001_af2_000000294_0001_1_15_H_._HHH_b2_03631_af2_0001_0000300009_0000001_0 (protein)
chain: SSSSTEDELASEALKLLRRLLAKGNEEEAEELLKEVVKLLEEAGNETAARDLRRFFEIFGSSSSS
B4: il2ra_site1_1z92_normal_mot_54e474eed2d0515e81978198f0f96ec2_0001_000000202_0001_15_30_H_._877bfc5a5079d34557376665d7030903_0001_0001_0000100013_0000001_0_af2pr … (protein)
chain: SAERVAAIAAELDKRDPRAAKYLRLLWDLVQKHKDDISVLIRELRHLAELRQDPHLALAAELLLE
B5: il2ra_site2_3nfp_normal_mot_HHH_b1_03376_000000004_0001_41_55_H_._4975baa4e6927a9e2efcc4d468b24295_0001_1_af2_0001_0000300016_0000001_0_af2pred_0001_af2pred (protein)
chain: DIKQILRRALEENPDNEALFEAFALLIELLRRGVPPEEVERIVVEFLKELGDPEAEEVARELEET
B6: il2ra_site2_2erj_sap_21_mot_HHH_b1_08185_000000106_0001_41_55_H_._HHH_b1_05357_0001_0000100003_0000001_0_0001 (protein)
chain: DESIELTLEMLLEGDPLARRFLELTLHSVLGNPEEVEKILEELEELVENGDPEKAVELFKEALSR
B7: il2ra_site1_1z92_sap_13_mot_8e74d2c0662b2664e0165ba77bf01796_0001_af2_000000260_0001_19_33_H_._HHH_b1_04306_af2_0001_0000200009_0000001_0_0001_af2pred_0001_af2p … (protein)
chain: SSSSNKHEEILKSALKRIERAVEDGDPEKAEELIKFAEIAAKKFNDEEVEERLRELREEISSSSS
B8: il2ra_site2_3nfp_sap_27_mot_HHH_b1_07764_000000013_0001_24_39_H_._e8837ef3cdfbf3e926567bf0d89cea13_0001_0001_0000100012_0000001_0_0001 (protein)
chain: SSSSEEELKELEEEIRRLLEEGNLDEAAKLIEELLKLALELNDEEAIKVVLELYKILKERASSSS
B9: il2ra_site1_2b5i_normal_mot_HHH_b2_04910_000000118_0001_1_19_H_._HHH_b1_07294_af2_0001_0000100005_0000001_0_af2pred_0001_af2pred_1 (protein)
chain: SSSSSSSEAWELLQQANEAFRRGDDEEAEELLKEALKVAEEEGNKALLRSIRKALEQISSSSSSS
B10: il2ra_site1_2b5i_sap_9_mot_HHH_b1_00673_af2_000000168_0001_3_18_H_._HHH_b1_01635_0001_0000200006_0000001_0_0001_af2pred_dldesign_0_af2pred (protein)
chain: SSSSDEAILARAEELFAESSSLDEEAVRERLAELRALAEQAEDPTLRRYIERRVRMLERALSSSS

The experiment has as its target il2ra, P01589. Nature of the experiment: yeast display titration.
As for B1, the “apparent Kd” value is “inactive: no binding seen”.

Take B2: the “apparent Kd” value is “inactive: no binding seen”. As to B3, the “apparent Kd” value is “inactive: no binding seen”. The same measure for B4: “inactive: no binding seen”.

In the case of B5, the “apparent Kd” value was “inactive: no binding seen”. Regarding B6, the “apparent Kd” value was “inactive: no binding seen”. Consider B7, for which the “apparent Kd” value is “inactive: no binding seen”. Next, B8: “inactive: no binding seen”.

Take B9: the “apparent Kd” value was “inactive: no binding seen”. As for B10, the “apparent Kd” value is “inactive: no binding seen”.
